In PubChem BioAssay AID504444 (National Center for Advancing Translational Sciences (NCATS), 2011):
Hit rate of the full screen: of about 360,000 compounds, about 7,500 (2.1%) were called active. Inconclusive results, whose numbers are uncertain, are shown with a selection of clear calls. Calls come from the whole dose curve; as a rule, active = well fitted inhibition curve with a large enough effect; inconclusive = small, poorly fitted or top-dose-only effect, or effect the other way; inactive = flat fitted curve, though single readings scatter. Potencies of inconclusive entries are doubtful fits and often do not repeat.

Assay: Nrf2 qHTS screen for inhibitors; note: nearly all actives have a fitted effect of over 60% in size
Conditions: A549 ARE-Fluc reporter, luciferase luminescence, 18-24 h; activity change, negative = inhibition: at 46 µM (top of the series)
Summary of the method: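 Quantitative HTS in A549 cells stably bearing an antioxidant response element-firefly luciferase construct. Inhibition of Nrf2-driven transcription was scored by luminescence after 18-24 h of compound exposure at 37 °C.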
% is set by controls: 0 for no effect and ±100 for the full control effect; potency is the fitted concentration of half-maximal effect.

| SMILES | Potency | activity change, negative = inhibition |
| --- | --- | --- |
| CCOC(=O)CNC(=O)CSc1nnc(NC(=O)c2ccc(C)cc2)s1 | inconclusive: 4.11 µM [falling, full curve] | – |
| Nc1ccc(C(=O)c2ccc3c(c2)OCCO3)cc1N | inconclusive: 16.4 µM [activator, partial curve] | – |
| CC(=O)Nc1ccc(C2=NNC(=Nc3cccc(S(=O)(=O)N(C)C)c3)SC2)cc1 | inconclusive: 25.9 µM [falling, single point] | – |
| COc1ccc(OCCn2cnc(Cl)c2Cl)cc1 | inconclusive: 6.51 µM [activator, single point] | – |
| Fc1ccccc1-c1ccc(/C=N/Nc2nc3ccccc3[nH]2)o1 | inconclusive: 7.31 µM [activator, partial curve] | – |
| CCN1CCN(C(=O)CN2C(=O)COc3ccc(S(=O)(=O)N4CCOCC4)cc32)CC1 | – | inactive: -8.82% |
| CC(C)(C)c1ccc(C(=O)Nc2nnc(Cc3c[nH]c4ccccc34)s2)cc1 | inconclusive: 29.1 µM [falling, partial curve, poor fit] | – |
| CN1CCN(S(=O)(=O)c2cccc(C(=O)N(C)CC(=O)Nc3ccc(F)c(F)c3F)c2)CC1 | – | inactive: 16.1% |
| COc1ccccc1-c1nn2c(C3COc4ccccc4O3)nnc2s1 (stereo unspecified) | inconclusive: 29.1 µM [falling, partial curve, poor fit] | – |
| CCN(CC)c1cc2c(cc1F)c(=O)c(S(=O)(=O)c1ccc(OC)cc1)cn2Cc1ccccc1 | – | inactive: 11.6% |
| COc1ccc([C@@H]2[C@@H]3C(=O)N(C(C)(C)C)C(=O)[C@@H]3[C@]3(Cc4ccccc4)C(=O)N(c4cccc(Br)c4)C(=O)N23)cc1 | inconclusive: 5.8 µM [activator, full curve] | – |
| COc1cc(-c2cc(OC)c3c(C)oc(C)c3c(=O)c2)ccc1O | inconclusive: 23.1 µM [falling, partial curve, poor fit] | – |
| CCc1ccc(Oc2c(C(F)(F)F)oc3c(CN4CCC(C)CC4)c(O)ccc3c2=O)cc1 | – | inactive: 9.95% |
| CCCCN(CC)C(=O)c1cc2c(=O)n3cccc(C)c3nc2n1C | – | inactive: -8.42% |
| O=C(CNCc1ccccc1Cl)Nc1cc(S(=O)(=O)N2CCOCC2)ccc1Cl | active: 16.4 µM | – |
| Cc1ccc2c(ccn3cc4c(c(=O)n(C)c(=O)n4C)c23)c1 | inconclusive: 16.4 µM [activator, partial curve, poor fit] | – |
| CC(C)CCNC(=O)Nc1ccc2c(c1)N(Cc1ccccc1)C(=O)c1ccccc1S2 | inconclusive: 29.1 µM [falling, single point] | – |
| COc1ccc(C(=O)N2CCN(c3ccc(C)cc3C)CC2)cc1OC | inconclusive: 32.6 µM [falling, single point] | – |
| CCC(=O)c1ccccc1OCCN1CCN(Cc2ccccc2)CC1 | inconclusive: 5.17 µM [falling, partial curve, poor fit] | – |
| CCCCn1cnc2sc(-c3ccccc3)cc2c1=O | inconclusive: 5.8 µM [activator, partial curve, poor fit] | – |
| COc1ccc(-c2nc3ncccn3c2Br)cc1 | inconclusive: 3.66 µM [activator, full curve] | – |

| SMILES | Potency | activity change, negative = inhibition |
| --- | --- | --- |
| Fc1cccc(CO/N=C/c2c(-c3ccccc3)nc3ccc(Cl)cn23)c1 | inconclusive: 2.31 µM [falling, full curve, poor fit] | – |
| COc1cc(OC)c(NC(=O)c2cc(C)nc3c2c(C)nn3-c2ccc(C)cc2)cc1Cl | inconclusive: 3.26 µM [falling, partial curve, poor fit] | – |
| COc1ccc(N(CC(=O)Nc2cc(C)on2)S(=O)(=O)c2cc(C)ccc2C)cc1 | inconclusive: 29.1 µM [falling, single point] | – |
| COc1ccc(C2c3cc(OC)c(OC)cc3CCN2C(=O)c2ccccc2Br)cc1OC (stereo unspecified) | inconclusive: 23.1 µM [falling, partial curve, poor fit] | – |
| O=C(CN1CCOCC1)Nc1ncc(Cc2cccc3ccccc23)s1 | inconclusive: 14.6 µM [falling, partial curve, poor fit] | – |
| CCOC(=O)c1csc(-c2sccc2Br)n1 | inconclusive: 18.4 µM [activator, partial curve] | – |
| O=C1COc2ccc(S(=O)(=O)CCC(=O)N3CCN(c4ccccc4)CC3)cc2N1 | – | inactive: 1.56% |
| CCOc1ccc(OCC)c(NC(=O)Cn2nc(CC)n3c(cc4sccc43)c2=O)c1 | – | inactive: -6.83% |
| Cc1cc(NC(=O)C2CC2)n(-c2nc3ccccc3s2)n1 | inconclusive: 2.91 µM [activator, partial curve] | – |
| CCOC(=O)c1sc(N(Cc2ccccc2)C(=O)COC(=O)c2cnccn2)nc1C | inconclusive: 0.58 µM [activator, full curve, poor fit] | – |
| CCc1ccc(NC(=O)C(=O)N/N=C(\C)CC(=O)NCCOC)cc1 | inconclusive: 0.103 µM [activator, full curve, poor fit] | – |
| COc1ccc(NC(=O)Nc2cccc(F)c2)c(OC)c1 | inconclusive: 20.6 µM [activator, single point] | – |
| O=C(c1ccccc1)C(CN1CCCCC1)c1ccccc1 (stereo unspecified) | inconclusive: 18.4 µM [falling, partial curve, poor fit] | – |
| COCCCNc1nc2c(-c3cccc(C)c3)nnn2c2ccc(Cl)cc12 | inconclusive: 29.1 µM [falling, single point] | – |
| CCOC(=O)C1CCN(C(=S)Nc2ccc(CC)cc2)CC1 | inconclusive: 9.2 µM [activator, partial curve, poor fit] | – |
| Cc1nc(NCCc2ccccc2)sc1C(=O)N(C)C | inconclusive: 25.9 µM [activator, single point] | – |
| COCC(=O)Nc1c(C(=O)Nc2ccc3c(c2)OCCO3)oc2ccccc12 | inconclusive: 9.2 µM [activator, partial curve] | – |
| Cc1oncc1C(=O)Nc1ccc2ccccc2c1 | inconclusive: 7.31 µM [activator, partial curve] | – |
| O=c1cc(O)nc(-c2ccc(Cl)cc2)s1 | inconclusive: 6.51 µM [activator, single point] | – |
| CCCCN(CC)CCCNC(=O)Cn1ncc2c3ccccc3n(C)c2c1=O | – | inactive: 25.7% |

Entries of single compounds as entered above:
COCC(=O)Nc1c(C(=O)Nc2ccc3c(c2)OCCO3)oc2ccccc12 is entered as Potency: inconclusive: 9.2 µM [activator, partial curve]
COc1ccc(C2c3cc(OC)c(OC)cc3CCN2C(=O)c2ccccc2Br)cc1OC (stereo unspecified) is entered as Potency: inconclusive: 23.1 µM [falling, partial curve, poor fit]
O=C(CN1CCOCC1)Nc1ncc(Cc2cccc3ccccc23)s1 is entered as Potency: inconclusive: 14.6 µM [falling, partial curve, poor fit]
